Experimental data taken from PubChem BioAssay AID485314 (National Center for Advancing Translational Sciences (NCATS), 2010).
The whole screen tested about 340,000 compounds, of which about 4,500 (1.3%) were called active. The inconclusive results got no clear call from the source; some entries with a clear call stand among them for comparison. Calls come from the whole dose curve; as a rule, active = well fitted inhibition curve with a large enough effect; inconclusive = small, poorly fitted or top-dose-only effect, or another doubt; inactive = no such curve, though single readings can be large or run the other way. Where the call is inconclusive, the potency comes from a doubtful curve fit.

Each compound was assayed against DNA polymerase beta (Homo sapiens) (UniProt P06746) (assay: qHTS Assay for Inhibitors of DNA Polymerase Beta). Conditions: Pol beta primer extension/strand displacement, fluorescence kinetic; activity change, negative = inhibition: at 114 µM (top of the series).
In short: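 10 nM enzyme + cpd, 15 min RT; start with substrate 50 nM final; read 0 min and after 10 min RT. Corrected, normalized data; 4-parameter Hill curve fit.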
% is set by controls: 0 for no effect and ±100 for the full control effect; potency is the fitted concentration of half-maximal effect.

| SMILES | Potency | activity change, negative = inhibition |
| --- | --- | --- |
| CC(=O)Nc1ccc(S(=O)(=O)N2CCN(Cc3ccncc3)CC2)cc1 | inconclusive: 0.631 µM [inhibitor, full curve, poor fit] | – |
| CC1=C/C(=C/N(C)C)C(=O)O1 | inconclusive: 35.5 µM [inhibitor, single point] | – |
| Cc1cc([N+](=O)[O-])ccc1N=Nc1c(N)[nH]n(-c2ccccc2)c1=O | inconclusive: 8.91 µM [inhibitor, full curve, poor fit] | – |
| O=C(CNC(=O)c1cccs1)N=Nc1c(O)[nH]c2ccc([N+](=O)[O-])cc12 | – | inconclusive: -38.2% [inhibitor] |
| O=C(NCC(=O)N(c1ccccc1F)C(C(=O)NCC1CCCO1)c1ccccc1)c1ccco1 (centres undefined) | inconclusive: 89.1 µM [inhibitor, single point] | – |
| O=C(/C=C/c1ccco1)NCc1ccco1 | active: 10 µM | – |
| Cn1cc(/C=N\NC(=O)C2COc3ccccc3O2)c2ccccc21 (centres undefined) | inconclusive: 0.447 µM [inhibitor, full curve, poor fit] | – |
| O=C(CSc1nc2c(sc3ccccc32)c(=O)n1CCc1ccccc1)NCc1ccco1 | inconclusive: 50.1 µM [inhibitor, partial curve] | – |
| CNc1ccc(Br)cc(C(=O)/C=C/c2cccc(Cl)c2Cl)c1=O | active: 14.1 µM | – |
| COC(=O)c1ccccc1N1C(=O)C2C(C1=O)C1C=CC2C12CC2 (centres undefined) | inconclusive: 1 µM [inhibitor, full curve, poor fit] | – |
| COc1ccccc1CNC(=O)C(=O)NCC(c1cccnc1)N1CCN(c2ccccc2)CC1 (centres undefined) | – | inactive: -12% |
| O=C(NCC1CCCO1)c1ccc2c(c1)N(Cc1ccccc1)CCS2 (centres undefined) | inconclusive: 0.0398 µM [inhibitor, full curve, poor fit] | – |
| Cc1c(C)n(CC(O)CN2CCOCC2)c2ccccc12 (centres undefined) | inconclusive: 89.1 µM [inhibitor, single point] | – |
| O=C(COCc1cc(-c2ccco2)on1)Nc1cc(Cl)ccc1O | inconclusive: 50.1 µM [inhibitor, partial curve] | – |
| CC(=O)Nc1c(O)[nH]c2ccccc12 | inconclusive: 89.1 µM [inhibitor, single point] | – |
| COc1ccc(-c2ccc(SC)nn2)cc1 | – | inactive: 14.5% |
| NC(=S)NC1CC2CC1C1C=CCC21 (centres undefined) | inconclusive: 10 µM [inhibitor, partial curve] | – |
| Cc1cc2c(c(=O)o1)C(c1ccc([N+](=O)[O-])o1)C(C#N)=C(N)O2 (centres undefined) | inconclusive: 0.1 µM [inhibitor, full curve, poor fit] | – |
| CCOc1ccccc1C(=O)NCc1ccc2c(c1)OCO2 | inconclusive: 89.1 µM [inhibitor, single point] | – |

Full records, looked up by structure:
`Cc1cc2c(c(=O)o1)C(c1ccc([N+](=O)[O-])o1)C(C#N)=C(N)O2` (centres undefined) is entered as Potency: inconclusive: 0.1 µM [inhibitor, full curve, poor fit]
`CNc1ccc(Br)cc(C(=O)/C=C/c2cccc(Cl)c2Cl)c1=O` is entered as Potency: active: 14.1 µM
